The target of the assay is GST-fused DYNLL1 (human (from the printed UniProt accession)) (UniProt P63167). Briefly: ELISA; phage-ELISA, GST-fused DYNLL1 immobilised, peptide displayed on phage without Leu-zipper; data not shown; only the target purified.

Chains of the proteins cited; added tags and fusions are not shown.
UniProt P63167: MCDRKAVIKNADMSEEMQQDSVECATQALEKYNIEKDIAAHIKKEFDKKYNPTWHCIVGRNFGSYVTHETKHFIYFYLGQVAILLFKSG

From publication PMC3078936 come the findings set out here.

Results are given in words; binding and its absence hold for the method and conditions named. Some results given as binding are weak or reduced against the parent protein; the word gives no strength. Sequences can lack the tags named with a protein.

On to EDKATQTL [Flag-tagged Bmf peptide (EDKATQTL) displayed monovalently on the M13 p3 coat protein], for which the binding entry is “binds weakly”.
As to EDKATQTL [Flag-tagged Bmf peptide (EDKATQTL) displayed multivalently on the M13 p8 coat protein], the binding entry is given as “binds weakly”.
